# Reference: patent US10709119B2, “Methods of agent delivery into eggs and embryos of egg-producing aquatic animals for drug screening, agent toxicity assay and production of infertile fish” (University of Maryland Baltimore County, priority 2015, dated 2020)
# Part of at least one peptide drawing is inferred or uncertain, most often the ends.
# System: chorion of zebrafish eggs
# Experiment: Uptake of fluorescein-dextran by zebrafish eggs incubated with guanidine-containing compounds (chorion permeability)
# Type: in vivo
# Conditions: 40 μM poly-arginine, 1 μM of 10 KD fluorescein-dextran, 4 hours, versus control eggs
# Method: Zebrafish eggs were incubated in solutions that contained 1 μM of 10, 20 or 40 KD fluorescein-dextran with either 0 or 40 mM of arginine, guanidine-HCl or guanidine-thiocyanate for 24 hours.
# 40 zebrafish eggs were transferred into each well of 48-well plates that contained 300 μl of fresh tank system water. After the allocation of eggs, system water in each well was replaced with 300 μl of water that contained 0 or 40 μM of poly-arginine (9-arginine polymer) and 1 μM of 10 KD fluorescein-dextran. After 4 hours of incubation the eggs were examined using a MZ12 stereomicroscope (Leica, Buffalo Grove, USA), or an Axioplan 2 fluorescence microscope (ZEISS, Thornwood, N.Y., USA). Both microscopes were equipped with a DP70 digital camera (Olympus, Center Valley, Pa., USA).
compound,measurement,value
N=C(N)NCCC[C@H](NC(=O)[C@H](CCCNC(=N)N)NC(=O)[C@H](CCCNC(=N)N)NC(=O)[C@H](CCCNC(=N)N)NC(=O)[C@H](CCCNC(=N)N)NC(=O)[C@H](CCCNC(=N)N)NC(=O)[C@H](CCCNC(=N)N)NC(=O)[C@H](CCCNC(=N)N)NC(=O)[C@@H](N)CCCNC(=N)N)C(=O)O [poly-arginine/9 mer],uptake of fluorescein-dextran in the eggs (green fluorescence),enhanced the uptake of fluorescein-dextran
